Experimental data: doi:10.1101/2025.10.03.680331
No constants are given. Whether binding was seen depends on the method and setting. Binding seen in cells or lysates may run through a third protein. A yes stands for co-enrichment or nearness to the bait. Other partners may have been found. Sequences can lack the tags named with a protein.

T1: GST-tagged mouse GlialCAM cytosolic tail (mouse) (UniProt Q640R3)
T1 sequence: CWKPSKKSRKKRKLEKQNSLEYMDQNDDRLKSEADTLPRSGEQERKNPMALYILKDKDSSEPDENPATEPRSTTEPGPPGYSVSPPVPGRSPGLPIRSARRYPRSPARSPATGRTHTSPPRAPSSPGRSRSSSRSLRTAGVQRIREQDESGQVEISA

B1: ADD3 (protein, UniProt Q9QYB5 1-706)
chain: MSSDTSPAVVTTPPPPSMPHKERYFDRINESDPEYLRERNMSPDLRQDFNMMEQRKRVTQILQSPAFREDLECLIQEQMKKGHNPSGLLALQQIADYIVTSSFSGFSSPSLSLGMVTPINDLPGADTSSYVKGEKLTRCKLASLYRLADLFGWAHLANTYISVRISKEQDHIIIIPRGLSFSEATASTLVKVNIIGEVVDQGSTDLKIDHTGFSPHAAIYSTRPDVKCVIHIHTLATAAVSSMKCGILPISQESLILGDVAYYDYQGSLDEEEERIELQKVLGPSCKVLVLRNHGMVALGETLEEAFHYIFNVQMACEIQVQAVAGAGGVDNLLVLDLQKYKAFTHGVAMSGGGGVNMASHQKWKVGEIEFEGLMRTLDNLGYRTGYAYRHPLVREKPRHKSDVEIPATVTAFSFEDDSAPLSPLKFMAQRQQREKTRWLNSPNTYMKVNVPEESRNGETSPRTKITWMKAEDSSKVSSGTPIKIEDPNQFVPLNTNPTEVLEKRNKIREQNRYDLKTAGPQSQLLAGIVVDKPPSTMQFDDDDQGPPAPPNPFSHLLEGELEEYTKTIERKQQGLDDAEQGSLSDDAASVSQIQSQTQSPQSVPERLEENHELFSKSFTSMDAPVMIMNGKDEMHDVEDELAQRVSRLTTSTTIENIEITIKSPERTEEVLSPDGSPSKSPSKKKKKFRTPSFLKKNKKKEKVEA
B2: MARCKS (protein, UniProt P26645 1-309)
chain: MGAQFSKTAAKGEATAERPGEAAVASSPSKANGQENGHVKVNGDASPAAAEPGAKEELQANGSAPAADKEEPASGSAATPAAAEKDEAAAATEPGAGAADKEAAEAEPAEPSSPAAEAEGASASSTSSPKAEDGAAPSPSSETPKKKKKRFSFKKSFKLSGFSFKKSKKESGEGAEAEGATAEGAKDEAAAAAGGEGAAAPGEQAGGAGAEGAAGGEPREAEAAEPEQPEQPEQPAAEEPQAEEQSEAAGEKAEEPAPGATAGDASSAAGPEQEAPAATDEAAASAAPAASPEPQPECSPEAPPAPTAE
B3: AMER2 (protein, UniProt Q8CCJ4 1-672)
chain: METGRSRGGGAAVSERGGGARAGVCGRQEQAGALAADMDSHCECAAETPAAEPPSGKINKAAFKLFKKRKSGGTMPSIFGVKNKGDGKSSGPTGMVRSRTHDGLAEVLVLEGSKKEEPPGGSDHSGARPIPGPPKPSGPGLGSLASSSVAKSHSFFSLLKKNGRSETGKGDHAEASKAGGKQKRGLKGIFSSMRWHRRDKRGKEEEEKAVRAAGPGNLVLPGSLTASLECVKEEPPRAARRPDSPGQDASRHAAGEPAGGEQAPASAESAPERICLEAGSPTGSGDQSSRGEDAEGHRREEKPGAALESGAGEVQAAEDASKTGDVPIKTVPLVDSEGGSGRASAVPDPSSVDPPSDPSADRICLMFSDVTSLKSFDSLTGCGDIIADPEEEAGPSCDKHVPGPGKPVLSKKNASVVAYQGGGEEMASPDQVDDTYLPEFWDMLSQTEDQGQGTQEGAAKAATASDIKLAPETSSDTRCGEAAKDMSSVKRRRLHRIPIESQQKEEPKHPEKEHQEGVPNSDEGYWDSTTPGPEEESISNSSSSKKVVIPRDSDSGDALCDLYVEPEASPATLPATEDPPCLSRLKPVSPGTITCPLRTPGSLLKDSKIPISIKHLSNLPSSHPVVHQQPARSEVPRTKIPVSKVLVRRVSNRGLAGTTIRAAACHDSAKKL
B4: SPON1 (protein, UniProt Q8VCC9 29-807)
chain: FSDETLDKVTKSEGYCSRILRAQGTRREGYTEFSLRVEGDPDFYKPGSSYRVTLSAAPPSYFRGFTLIALKENQEGDKEEDHAGTFQIIDEEETQFMSNCPVAVTESTPRRRTRIQVFWIAPPTGTGCVILKASIVQKRIIYFQDEGSLTKKLCEQDPTLDGVTDRPILDCCACGTAKYRLTFYGNWSEKTHPKDYPRRANHWSAIIGGSHSKNYVLWEYGGYASEGVKQVAELGSPVKMEEEIRQQSDEVLTVIKAKAQWPAWQPVNVRAAPSAEFSVDRTRHLMSFLTMMGPSPDWNVGLSAEDLCTKECGWVQKVVQDLIPWDAGTDSGVTYESPNKPTIPQEKIRPLTSLDHPQSPFYDPEGGSITQVARVVIERIARKGEQCNIVPDNVDDIVADLAPEEKDEDDTPETCIYSNWSPWSACSSSTCEKGKRMRQRMLKAQLDLSVPCPDTQDFQPCMGPGCSDEDGSTCTMSEWITWSPCSVSCGMGMRSRERYVKQFPEDGSVCMLPTEETEKCTVNEECSPSSCLVTEWGEWDDCSATCGMGMKKRHRMVKMSPADGSMCKAETSQAEKCMMPECHTIPCLLSPWSEWSDCSVTCGKGMRTRQRMLKSLAELGDCNEDLEQAEKCMLPECPIDCELSEWSQWSECNKSCGKGHMIRTRTIQMEPQFGGVPCPETVQRKKCRTRKCLRSPSVQKLRWREARESRRSEQLREESDGEQFPGCRMRPWTAWSECTKLCGGGIQERYMTVKKRFKSSQFTSCKDKKEIRACNVHPC
B5: DCLK1 (protein, UniProt Q9JLM8 1-756)
chain: MSFGRDMELEHFDERDKAQRYSRGSRVNGLPSPTHSAHCSFYRTRTLQTLSSEKKAKKVRFYRNGDRYFKGIVYAISPDRFRSFEALLADLTRTLSDNVNLPQGVRTIYTIDGLKKISSLDQLVEGESYVCGSIEPFKKLEYTKNVNPNWSVNVKTTSASRAVSSLATAKGGPSEVRENKDFIRPKLVTIIRSGVKPRKAVRILLNKKTAHSFEQVLTDITDAIKLDSGVVKRLYTLDGKQVMCLQDFFGDDDIFIACGPEKFRYQDDFLLDESECRVVKSTSYTKIASASRRGTTKSPGPSRRSKSPASTSSVNGTPGSQLSTPRSGKSPSPSPTSPGSLRKQRISQHGGSSTSLSSTKVCSSMDENDGPGEGDELGRRHSLQRGWRREESEEGFQIPATITERYKVGRTIGDGNFAVVKECIERSTAREYALKIIKKSKCRGKEHMIQNEVSILRRVKHPNIVLLIEEMDVPTELYLVMELVKGGDLFDAITSTSKYTERDASGMLYNLASAIKYLHSLNIVHRDIKPENLLVYEHQDGSKSLKLGDFGLATIVDGPLYTVCGTPTYVAPEIIAETGYGLKVDIWAAGVITYILLCGFPPFRGSGDDQEVLFDQILMGQVDFPSPYWDNVSDSAKELINMMLLVNVDQRFSAVQVLEHPWVNDDGLPENEHQLSVAGKIKKHFNTGPKPSSTAAGVSVIATTALDKERQVFRRRRNQDVRSRYKAQPAPPELNSESEDYSPSSSETVRSPNSPF
B6: Ras GTPase-activating protein-binding protein G3BP2 (protein, UniProt P97379 1-482)
chain: MVMEKPSPLLVGREFVRQYYTLLNKAPEYLHRFYGRNSSYVHGGVDASGKPQEAVYGQNDIHHKVLSLNFSECHTKIRHVDAHATLSDGVVVQVMGLLSNSGQPERKFMQTFVLAPEGSVPNKFYVHNDMFRYEDEVFGDSEPELDEESEDEVEEEQEDRQPSPEPVQENANSAYYDAHPVTNGIEEPLEESSHEPEPEPESETKTEELKPQVEEKHLEELEEKSATPPPAEPASLPQEPPKAFSWASVTSKNLPPSGTVSSSGIPPHVKAPVSQPRVDAKPEVQSQPPRVREQRPRERPGFPPRGPRPGRGDMEQNDSDNRRIIRYPDSHQLFVGNLPHDIDENELKEFFMSFGNVVELRINTKGVGGKLPNFGFVVFDDSEPVQRILIAKPIMFRGEVRLNVEEKKTRAARERETRGGGDDRRDIRRNDRGPGGPRGIVGGGMMRDRDGRGPPPRGGMTQKLGSGRGTGQMEGRFTGQRR
B7: FARP1 (protein, UniProt F8VPU2 1-1048)
chain: MGEIEQKPTPASRLGAPENSGISTLERGQKPPPTPSGKLMTVKIQMLDDTQEAFEVPQRAPGKVLFDAVCNHLNLVEGDYFGLEFPDHRKIVVWLDLLKPIVKQIRRPKHVVVKFVVKFFPPDHTQLQEELTRYLFALQVKQDLAQGRLTCNDTSAALLISHIVQSEIGDFDEALDREHLAKNKYVPQQDALEDRIMEFHHSHVGQTPAESDFQLLEVARRLEMYGIRLHPAKDREGTKINLAVANTGILVFQGFTKINAFNWAKVRKLSFKRKRFLIKLRPDVNSSYQDTLEFLMAGRDFCKSFWKICVEHHAFFRLFEEPKPKPKPVLFSRGSSFRFSGRTQKQVLDYVKEGGHKKVQFERKHSKIHSTRSLVSQPTAPNSEVPKQSPQSASLTFGEGTESPGGQSCQQAKETKACTLELGPHQSPALPKSPPGSKAADGTTVVPPEEEEEEEGGKDGIRPSNPQPPQPSTGSLTGSPHLSELSINSQGGAAPANVTLSPNLSPDNKQASPLISPLLNDQACPRTDDEEEGRRKRFPTDKAYYIAKEVSTTERTYLKDLEVIASWFQSTVSKEDSMPEALKSLIFPNFEPLHKFHTNFLKEIEQRLALWEGRSNAHVRGDYQRIGDVMLKNIQGMKHLAAHLWKHSEALEALETSIKGSRRLEHFCRDFELQKVCYLPLNTFLLRPLHRLMHYKHVLERLCKHHPPNHADFRDCRAALAEITEMVAQLHGTMIKMENFQKLHELKKDLIGIDNLVTPGREFIRLGSLSKLSGKGLQQRMFFLFNDVLLYTSRGLTASNQFKVHGQLPLYGMTIEESEEEWGVPHCLTLRGQRQSIIVAASSRSEMEKWMEDIQMAIDLAEKSNGPTPELLASSPPDNKSPDEATAADQESEDDLSASRTSLERQAPHRGNTMVHVCWHRSTSVSMVDFSIAVENQLSGNLLRKFKNSNGWQKLWVVFTNFCLFFYKSHQDSHPLASLPLLGYSLTIPSESENIHKDYVFKLHFKSHVYYFRAESEYTFERWMEVIRSATSSASRAHILSHKESHLY
B8: sodium-bicarbonate cotransporter Slc4a4 (protein, UniProt O88343 1-1079)
chain: MEDEAVLDRGASFLKHVCDEEEVEGHHTIYIGVHVPKSYRRRRRHKRKAGHKEKKEKERISENYSDKSDVENADESSSSILKPLISPAAERIRFILGEEDDSPAPPQLFTELDELLAVDGQEMEWKETARWIKFEEKVEQGGERWSKPHVATLSLHSLFELRTCMEKGSIMLDREASSLPQLVEMIADHQIETGLLKPDLKDKVTYTLLRKHRHQTKKSNLRSLADIGKTVSSASRMFSNPDNGSPAMTHRNLTSSSLNDISDKPEKDQLKNKFMKKLPRDAEASNVLVGEVDFLDTPFIAFVRLQQAVMLGALTEVPVPTRFLFILLGPKGKAKSYHEIGRAIATLMSDEVFHDIAYKAKDRHDLIAGIDEFLDEVIVLPPGEWDPTIRIEPPKSLPSSDKRKNMYSGGENVQMNGDTPHDGGHGGGGHGDCEELQRTGRFCGGLIKDIKRKAPFFASDFYDALNIQALSAILFIYLATVTNAITFGGLLGDATDNMQGVLESFLGTAVSGAIFCLFAGQPLTILSSTGPVLVFERLLFNFSKDHNFDYLEFRLWIGLWSAFMCLVLVATDASFLVQYFTRFTEEGFSSLISFIFIYDAFKKMIKLADYYPINSDFKVGYNTHFSCACLPPDPVNLSVSNDTTLAPEDLPTISSTDMYHNVTFDWAYLSKKECVKYGGKLVGNNCDFVPDITLMSFILFLGTYTSSMAMKKFKTSRYFPTTARKLISDFAIILSILIFCVIDALVGVDTPKLIVPSEFKPTSPNRGWFVPPFGGNPWWVCLAAAIPALLVTILIFMDQQITAVIVNRKEHKLKKGAGYHLDLFWVAILMVVCSFMALPWYVAATVISIAHIDSLKMETETSAPGEQPKFLGVREQRVTGTLVFILTGLSVFMAPILKFIPMPVLYGVFLYMGVASLNGVQFMDRLKLLLMPLKHQPDFIYLRHVPLRRVHLFTFLQVLCLALLWILKSTVAAIIFPVMILALVAVRKGMDYLFSQHDLSFLDDVIPEKDKKKKEDEKKKKKKKGSLDSDNDDSDCPYSEKVPSIKIPMDIMEQQPFLSDNKPLDRERSSTFLERHTSC

Each binder was assayed against T1, GST-tagged mouse GlialCAM cytosolic tail (mouse) (assay: affinity purification with mass spectrometry).

binding, binds:
B1, B2, B3, B4, B5, B6, B7, B8
